This note sets out measurements from the supplement of paper PMC10735217.

The test system of the experiment is HEK293A TEAD-LUC reporter. Kind of experiment: TEAD-luciferase reporter activity (YAP activation), robust Z score vs plate; higher = stronger YAP/TEAD activation. The settings on record: 24 h. (In general: In a reporter assay the amount or activity of a reporter protein is the signal.)

This is one part of the list. This data set is noisy: repeats of one test often differ as much as different tests do.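 Human kidney-derived cells stably carry a construct in which eight TEAD-binding elements drive luciferase, measured by luminescence in a drug-repurposing library screen. A hit is any compound whose signal exceeds the plate mean by more than five robust Z scores.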

Regarding `Cc1ccc(S(=O)(=O)NC(=O)Nc2ccc(Cl)cc2)cc1`, the TEAD-luciferase reporter activity was inactive: -0.687 (compound concentration: 200 nM), inactive: 1.87 (compound concentration: 2 uM) and inactive: 2.27 (compound concentration: 10 uM).
As to `Cc1ccc(C(=O)N2CCC(N3Cc4ccccc4C3=O)CC2)cc1`, the TEAD-luciferase reporter activity runs as follows: (compound concentration: 200 nM) inactive: -0.766; (compound concentration: 10 uM) inactive: -0.396.
For `CC(=O)CCCCn1cnc2c1c(=O)n(C)c(=O)n2C`, the TEAD-luciferase reporter activity runs as follows: (compound concentration: 200 nM) inactive: -0.883; (compound concentration: 2 uM) inactive: 1.03; (compound concentration: 10 uM) inactive: -0.524.
The matching figures for `O=C(O)CSCC(=O)NC1CCSC1=O` (stereo not given) [erdosteine]: inactive: 1.26, inactive: -0.277 and inactive: -1.6.
`Cc1cnc(NC(=O)C2=C(O)c3ccccc3S(=O)(=O)N2C)s1`: the TEAD-luciferase reporter activity (compound concentration: 200 nM) is inactive: -0.565 and the TEAD-luciferase reporter activity (compound concentration: 10 uM) is inactive: -1.74.
In the case of `Cc1cnc(NC(=O)C2=C(O)c3ccccc3S(=O)(=O)N2C)s1` [meloxicam], where the note is “compound concentration: 2 uM”, the TEAD-luciferase reporter activity was inactive: 2.12.
`CC(C)(C)C(=O)OCOC(=O)[C@@H]1N2C(=O)C[C@H]2S(=O)(=O)C1(C)C` [pivsulbactam]: the TEAD-luciferase reporter activity by setting is: (compound concentration: 200 nM) inactive: -0.0833; (compound concentration: 2 uM) inactive: 0.251; (compound concentration: 10 uM) inactive: 0.734.
The matching figures for `CC(C)(O)c1cc(Nc2cc(Oc3cn(C4CC4)nc3C3CCOCC3)ccn2)ccn1`: inactive: 2.68, inactive: -1.39 and inactive: -0.422.
In the same order, the values of `O=C(NS(=O)(=O)c1ccccc1)c1ccc(Cl)cc1Cl` are inactive: -0.267, inactive: -1 and inactive: 1.08.
`CCN(CC)CCNC(=O)c1ccc(NC(C)=O)cc1` [acecainide]: the TEAD-luciferase reporter activity by setting is: (compound concentration: 200 nM) inactive: -0.828; (compound concentration: 2 uM) inactive: -0.349; (compound concentration: 10 uM) inactive: 0.648.
In the same order, the values of `COc1ccc(S(=O)(=O)N2CCCN(S(=O)(=O)c3ccc(OC)c(OC)c3)CC2)cc1OC` are inactive: -2.17, inactive: -0.1 and inactive: -0.472.
The matching figures for `CC(=O)Nc1ccc(OCC(O)CNC(C)C)cc1` (stereo not given): inactive: -1.79, inactive: 1.18 and inactive: -0.621.
Regarding `COCOC(=O)[C@@H]1N2C(=O)[C@@H](N3C(=O)C(c4ccc(O)cc4)NC3(C)C)[C@H]2SC1(C)C` (stereo not given in full) [sarmoxicillin], the TEAD-luciferase reporter activity runs as follows: (compound concentration: 200 nM) inactive: 0.584; (compound concentration: 2 uM) inactive: 0.695; (compound concentration: 10 uM) inactive: 1.51.
In the case of `COc1ccc(/C=C/C(=O)Nc2ccccc2C(=O)O)cc1OC`, the TEAD-luciferase reporter activity is inactive: -1.07 (compound concentration: 200 nM) and inactive: -2.65 (compound concentration: 10 uM).
Take `COc1ccc(/C=C/C(=O)Nc2ccccc2C(=O)O)cc1OC` [tranilast]: the TEAD-luciferase reporter activity (compound concentration: 2 uM) was inactive: -2.21.
Regarding `c1ccc2c(Cc3c[nH]c4ccccc34)c[nH]c2c1` [Diindolylmethane], the TEAD-luciferase reporter activity was inactive: -1.37 (compound concentration: 200 nM), inactive: 1.52 (compound concentration: 2 uM) and inactive: 0.861 (compound concentration: 10 uM).
As to `O=C(CCCCCCCC(=O)NCCO)NCCO` [Adelmidrol], under “compound concentration: 2 uM”, the TEAD-luciferase reporter activity is inactive: 0.533.
Turning to `O=C(CCCCCCCC(=O)NCCO)NCCO`, the TEAD-luciferase reporter activity was inactive: -2.6 (compound concentration: 200 nM) and inactive: 0.096 (compound concentration: 10 uM).
For the molecule `C[C@@H](Nc1cc(F)cc(F)c1)c1cc(C(=O)N(C)C)cc2c(=O)cc(N3CCOCC3)oc12`, the TEAD-luciferase reporter activity was inactive: 1.61 (compound concentration: 200 nM), inactive: 1.19 (compound concentration: 2 uM) and active: 5.5 (compound concentration: 10 uM).
In the same order, the values of `Nc1nonc1/C(=N\c1ccc(F)c(Cl)c1)NO` are inactive: 0.618, inactive: -0.317 and inactive: -1.54.
For `CCN(CC)CCNc1ccc(CNC)c2sc3ccccc3c(=O)c12`, the TEAD-luciferase reporter activity was inactive: -0.942 (compound concentration: 200 nM), inactive: -1.79 (compound concentration: 2 uM) and inactive: 4.47 (compound concentration: 10 uM).
With `COc1cc2c(cc1OC)[C@@H](c1ccccc1)CN(C)CC2`, the TEAD-luciferase reporter activity (compound concentration: 200 nM) is inactive: -1.12, the TEAD-luciferase reporter activity (compound concentration: 2 uM) was inactive: -0.0143 and the TEAD-luciferase reporter activity (compound concentration: 10 uM) was inactive: 0.697.
`CC(C)Oc1ccc2c(=O)c(-c3ccccc3)coc2c1` [ipriflavone]: for the setting “compound concentration: 2 uM”, the TEAD-luciferase reporter activity is inactive: 1.91.
For the molecule `CC(C)Oc1ccc2c(=O)c(-c3ccccc3)coc2c1`, the TEAD-luciferase reporter activity is, setting by setting: (compound concentration: 200 nM) inactive: 3.17; (compound concentration: 10 uM) inactive: 2.92.
Regarding `N#Cc1ccc(OCCC2SC(=O)NC2=O)cc1` (stereo not given), the TEAD-luciferase reporter activity by setting is: (compound concentration: 200 nM) inactive: -0.822; (compound concentration: 2 uM) inactive: -0.31; (compound concentration: 10 uM) inactive: -0.786.
In the same order, the values of `CC1(C(=O)O)CCC2(C)CCC3(C)C(=CC(=O)C4C5(C)CCC(O)C(C)(C)C5CCC43C)C2C1` (stereo not given) are inactive: -1.26, inactive: -0.00366 and inactive: -0.442.
In the same order, the values of `CC(C)CNCc1ccc(-c2ccccc2S(=O)(=O)N2CCCC2)cc1` are inactive: -1.53, inactive: -0.211 and inactive: 0.837.
In the same order, the values of `O=c1c2ccccc2nc2n1CCCCC2` are inactive: 1.65, inactive: -0.512 and inactive: 0.954.
Regarding `N=C(N)c1ccc(CCCCC(=O)N[C@@H](CC(=O)O)C(=O)N[C@@H](Cc2ccccc2)C(=O)O)cc1`, the TEAD-luciferase reporter activity is, setting by setting: (compound concentration: 200 nM) inactive: -1.32; (compound concentration: 2 uM) inactive: 0.831; (compound concentration: 10 uM) inactive: 2.08.
In the same order, the values of `CO/N=C(/C(=O)N[C@@H]1C(=O)N2C(C(=O)OCOC(=O)C(C)(C)C)=C(/C=C/c3scnc3C)CS[C@H]12)c1csc(N)n1` [cefditoren pivoxil] are inactive: 0.52, inactive: 0.306 and inactive: -0.679.
The matching figures for `CCc1ncnc2ccc(CCc3cc(OC)ccc3OC)cc12`: inactive: 0.59, inactive: -2.05 and inactive: -1.69.
For `CCCCCCCCCCCCCCCCCCOP(=O)([O-])OCC[N+]1(C)CCCCC1`, the TEAD-luciferase reporter activity by setting is: (compound concentration: 200 nM) inactive: 0.358; (compound concentration: 2 uM) inactive: -0.807; (compound concentration: 10 uM) inactive: 0.354.
Consider `CCOC(=O)[C@@H](N)Cc1ccc(-c2cc(O[C@H](c3ccc(Cl)cc3-n3ccc(C)n3)C(F)(F)F)nc(N)n2)cc1` [Telotristat etiprate], for which the TEAD-luciferase reporter activity (compound concentration: 200 nM) was inactive: 0.68, the TEAD-luciferase reporter activity (compound concentration: 2 uM) was inactive: -1.31 and the TEAD-luciferase reporter activity (compound concentration: 10 uM) is inactive: -3.9.
As for `C/C=C/C/C=C/CCC(=O)[C@H]1O[C@H]1C(N)=O`, the TEAD-luciferase reporter activity (compound concentration: 200 nM) is inactive: -2.5, the TEAD-luciferase reporter activity (compound concentration: 2 uM) was inactive: -0.4 and the TEAD-luciferase reporter activity (compound concentration: 10 uM) was inactive: -0.454.
For `O=Cc1cccc(N2CCN(C(=O)N3CCCCC3)CC2=O)c1`, the TEAD-luciferase reporter activity (compound concentration: 200 nM) is inactive: -1.41 and the TEAD-luciferase reporter activity (compound concentration: 10 uM) is inactive: 1.37.
In the case of `OC[C@H]1O[C@@H](Oc2cc3c(O)cc(O)cc3[o+]c2-c2ccc(O)c(O)c2)[C@H](O[C@@H]2OC[C@@H](O)[C@H](O)[C@H]2O)[C@@H](O)[C@@H]1O` [Cyanidin 3-sambubioside], the TEAD-luciferase reporter activity is inactive: 0.427 (compound concentration: 200 nM), inactive: -0.136 (compound concentration: 2 uM) and inactive: 0.331 (compound concentration: 10 uM).
Consider `C[C@]12CCC(=O)C=C1CC[C@@H]1[C@@H]2[C@@H](O)C[C@@]2(C)[C@H]1CC[C@]2(O)C(=O)CS` [Tixocortol], for which the TEAD-luciferase reporter activity (compound concentration: 200 nM) was inactive: 0.988, the TEAD-luciferase reporter activity (compound concentration: 2 uM) was inactive: 2.06 and the TEAD-luciferase reporter activity (compound concentration: 10 uM) is inactive: -0.149.
Turning to `CC(=O)O[C@@H](C[C@H](Cc1ccccc1)NC(=O)OCc1cccnc1)[C@H](Cc1ccccc1)NC(=O)[C@@H](NC(=O)OCc1ccccn1)C(C)C`, the TEAD-luciferase reporter activity is, setting by setting: (compound concentration: 200 nM) inactive: 4.49; (compound concentration: 2 uM) inactive: -1.23; (compound concentration: 10 uM) inactive: -0.822.
